Assay [1] deals with human α-tubulin (TUBA-1B) in the microtubule of the cryo-EM structure (human (endogenous in HEK293T)) (UniProt P68363). Briefly: cryo-EM structure.
In assay [2] the target is human TTLL11 (tubulin tyrosine ligase-like 11), full length (human) (UniProt Q8NHH1). Briefly: SEC. On the technique in general: Size exclusion chromatography separates by hydrodynamic size, large species first.

Protein sequences, listed by entry. Tags and fused reporters are not part of them. Lines headed by an entry give the natural chain unless they say otherwise; changes in a name come on top.
UniProt P68363, whole entry: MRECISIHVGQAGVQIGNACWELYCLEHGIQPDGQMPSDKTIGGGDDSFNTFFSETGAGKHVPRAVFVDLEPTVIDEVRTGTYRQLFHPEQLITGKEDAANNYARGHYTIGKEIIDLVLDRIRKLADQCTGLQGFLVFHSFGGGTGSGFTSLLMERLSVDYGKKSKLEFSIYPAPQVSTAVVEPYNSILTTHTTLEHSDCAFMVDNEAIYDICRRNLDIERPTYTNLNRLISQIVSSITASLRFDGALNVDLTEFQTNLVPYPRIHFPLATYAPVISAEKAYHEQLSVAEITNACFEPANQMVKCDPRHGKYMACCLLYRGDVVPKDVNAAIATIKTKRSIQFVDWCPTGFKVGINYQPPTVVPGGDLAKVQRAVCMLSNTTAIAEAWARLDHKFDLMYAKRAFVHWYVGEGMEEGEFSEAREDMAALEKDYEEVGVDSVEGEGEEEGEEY

No constants are given. Whether binding was seen depends on the method and setting. Some results given as binding are weak or reduced against the parent protein; the word gives no strength.

B1: human TTLL11 (E441G) of the cryo-EM sample (enzyme, UniProt Q8NHH1 121-710)
chain: GENGSQRPVTVDSSKARTSLDALKISIRQLKWKEFPFGRRLPCDIYWHGVSFHDNDIFSGQVNKFPGMTEMVRKITLSRAVRTMQNLFPEEYNFYPRSWILPDEFQLFVAQVQMVKDDDPSWKPTFIVKPDGGCQGDGIYLIKDPSDIRLAGTLQSRPAVVQEYICKPLLIDKLKFDIRLYVLLKSLDPLEIYIAKDGLSRFCTEPYQEPTPKNLHRIFMHLTNYSLNIHSGNFIHSDSASTGSKRTFSSILCRLSSKGVDIKKVWSDIISVVIKTVIALTPELKVFYQSDIPTGRPGPTCFQILGFDILLMKNLKPILLGVNANPSMRIEHEHELSPGVFENVPSLVDEEVKVAVIRDTLRLMDPLKKKRENQSQQLEKPFAGKEDALDGELTSAPDCNANPEAHLPSICLKQVFPKYAKQFNYLRLVDRMANLFIRFLGIKGTMKLGPTGFRTFIRSCKLSSSSLSMAAVDILYIDITRRWNSMTLDQRDSGMCLQAFVEAFFFLAQRKFKMLPLHEQVASLIDLCEYHLSLLDEKRLVCGRGVPSGGRPPHRGPPQEPSPSAQPAGDNPPPRTSCANKLSHPRHTLS
For the molecule B1, the binding result in assay [1] was “binds”.

B2: human TTLL11 (tubulin tyrosine ligase-like 11), full length (enzyme, UniProt Q8NHH1 1-710)
chain: MRRGSSESELAARWEAEAVAAAKAAAKAEAEATAETVAEQVRVDAGAAGEPECKAGEEQPKVLAPAPAQPSAAEEGNTQVLQRPPPTLPPSKPKPVQGLCPHGKPRDKGRSCKRSSGHGSGENGSQRPVTVDSSKARTSLDALKISIRQLKWKEFPFGRRLPCDIYWHGVSFHDNDIFSGQVNKFPGMTEMVRKITLSRAVRTMQNLFPEEYNFYPRSWILPDEFQLFVAQVQMVKDDDPSWKPTFIVKPDGGCQGDGIYLIKDPSDIRLAGTLQSRPAVVQEYICKPLLIDKLKFDIRLYVLLKSLDPLEIYIAKDGLSRFCTEPYQEPTPKNLHRIFMHLTNYSLNIHSGNFIHSDSASTGSKRTFSSILCRLSSKGVDIKKVWSDIISVVIKTVIALTPELKVFYQSDIPTGRPGPTCFQILGFDILLMKNLKPILLEVNANPSMRIEHEHELSPGVFENVPSLVDEEVKVAVIRDTLRLMDPLKKKRENQSQQLEKPFAGKEDALDGELTSAPDCNANPEAHLPSICLKQVFPKYAKQFNYLRLVDRMANLFIRFLGIKGTMKLGPTGFRTFIRSCKLSSSSLSMAAVDILYIDITRRWNSMTLDQRDSGMCLQAFVEAFFFLAQRKFKMLPLHEQVASLIDLCEYHLSLLDEKRLVCGRGVPSGGRPPHRGPPQEPSPSAQPAGDNPPPRTSCANKLSHPRHTLS
modifications: Janelia 549-HALO probe on the HALO tag (in the TIRF assay)
In the case of B2, in assay [2], the binding result was “no binding”.

Source of the values: article doi:10.1101/2025.02.24.639257.
